Binding data for 1 substance are collected here from paper PMC10726160.

Protein sequences, listed by entry. Tags and fused reporters are not part of them.
UniProt Q3UHK8: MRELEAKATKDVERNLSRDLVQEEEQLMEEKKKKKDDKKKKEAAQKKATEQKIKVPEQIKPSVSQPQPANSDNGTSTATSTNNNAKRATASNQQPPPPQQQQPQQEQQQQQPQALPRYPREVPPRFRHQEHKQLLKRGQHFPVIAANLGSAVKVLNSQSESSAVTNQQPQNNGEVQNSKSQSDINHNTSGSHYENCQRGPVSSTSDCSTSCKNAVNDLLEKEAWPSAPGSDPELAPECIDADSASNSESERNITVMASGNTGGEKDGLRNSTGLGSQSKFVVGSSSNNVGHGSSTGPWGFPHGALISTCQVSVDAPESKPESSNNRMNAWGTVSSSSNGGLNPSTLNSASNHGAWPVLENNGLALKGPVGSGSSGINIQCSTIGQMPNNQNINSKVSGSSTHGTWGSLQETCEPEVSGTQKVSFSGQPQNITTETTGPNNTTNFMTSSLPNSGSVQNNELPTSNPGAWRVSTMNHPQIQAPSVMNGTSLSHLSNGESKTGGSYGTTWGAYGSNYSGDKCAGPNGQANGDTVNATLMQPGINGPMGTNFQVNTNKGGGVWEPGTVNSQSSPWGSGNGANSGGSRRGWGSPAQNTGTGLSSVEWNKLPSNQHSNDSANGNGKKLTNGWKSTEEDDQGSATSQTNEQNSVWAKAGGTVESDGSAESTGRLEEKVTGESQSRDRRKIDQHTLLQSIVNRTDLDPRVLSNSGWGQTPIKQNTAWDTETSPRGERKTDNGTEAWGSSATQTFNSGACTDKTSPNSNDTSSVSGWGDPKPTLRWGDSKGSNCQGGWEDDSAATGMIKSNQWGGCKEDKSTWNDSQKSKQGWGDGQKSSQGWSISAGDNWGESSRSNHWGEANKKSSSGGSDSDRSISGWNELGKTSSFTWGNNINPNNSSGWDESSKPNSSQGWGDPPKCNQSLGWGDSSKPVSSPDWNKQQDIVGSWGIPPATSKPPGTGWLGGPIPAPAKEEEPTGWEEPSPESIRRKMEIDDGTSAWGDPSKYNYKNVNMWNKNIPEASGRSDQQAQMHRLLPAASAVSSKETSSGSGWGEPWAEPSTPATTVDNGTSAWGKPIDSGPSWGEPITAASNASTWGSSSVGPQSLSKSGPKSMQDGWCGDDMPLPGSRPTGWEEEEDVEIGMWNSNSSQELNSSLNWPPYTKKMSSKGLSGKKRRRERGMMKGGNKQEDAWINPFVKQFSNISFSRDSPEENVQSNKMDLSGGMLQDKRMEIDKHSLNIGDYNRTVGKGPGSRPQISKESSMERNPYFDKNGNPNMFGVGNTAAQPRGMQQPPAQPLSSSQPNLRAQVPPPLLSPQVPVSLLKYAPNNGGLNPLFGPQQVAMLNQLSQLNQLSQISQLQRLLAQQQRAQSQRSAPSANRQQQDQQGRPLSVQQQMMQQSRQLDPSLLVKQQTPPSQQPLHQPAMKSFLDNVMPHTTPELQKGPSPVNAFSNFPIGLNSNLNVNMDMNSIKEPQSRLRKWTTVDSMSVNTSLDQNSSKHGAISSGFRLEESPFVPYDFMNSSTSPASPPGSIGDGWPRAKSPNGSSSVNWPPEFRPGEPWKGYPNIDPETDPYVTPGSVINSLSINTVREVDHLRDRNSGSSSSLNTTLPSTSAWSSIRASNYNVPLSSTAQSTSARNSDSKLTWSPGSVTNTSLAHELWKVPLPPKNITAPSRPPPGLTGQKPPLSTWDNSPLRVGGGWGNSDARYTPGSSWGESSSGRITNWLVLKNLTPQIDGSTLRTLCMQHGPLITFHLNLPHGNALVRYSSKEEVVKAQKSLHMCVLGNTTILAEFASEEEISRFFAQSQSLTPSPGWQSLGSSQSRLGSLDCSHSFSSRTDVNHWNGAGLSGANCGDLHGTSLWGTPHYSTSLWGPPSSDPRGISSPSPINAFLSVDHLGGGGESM
UniProt Q8CJG0: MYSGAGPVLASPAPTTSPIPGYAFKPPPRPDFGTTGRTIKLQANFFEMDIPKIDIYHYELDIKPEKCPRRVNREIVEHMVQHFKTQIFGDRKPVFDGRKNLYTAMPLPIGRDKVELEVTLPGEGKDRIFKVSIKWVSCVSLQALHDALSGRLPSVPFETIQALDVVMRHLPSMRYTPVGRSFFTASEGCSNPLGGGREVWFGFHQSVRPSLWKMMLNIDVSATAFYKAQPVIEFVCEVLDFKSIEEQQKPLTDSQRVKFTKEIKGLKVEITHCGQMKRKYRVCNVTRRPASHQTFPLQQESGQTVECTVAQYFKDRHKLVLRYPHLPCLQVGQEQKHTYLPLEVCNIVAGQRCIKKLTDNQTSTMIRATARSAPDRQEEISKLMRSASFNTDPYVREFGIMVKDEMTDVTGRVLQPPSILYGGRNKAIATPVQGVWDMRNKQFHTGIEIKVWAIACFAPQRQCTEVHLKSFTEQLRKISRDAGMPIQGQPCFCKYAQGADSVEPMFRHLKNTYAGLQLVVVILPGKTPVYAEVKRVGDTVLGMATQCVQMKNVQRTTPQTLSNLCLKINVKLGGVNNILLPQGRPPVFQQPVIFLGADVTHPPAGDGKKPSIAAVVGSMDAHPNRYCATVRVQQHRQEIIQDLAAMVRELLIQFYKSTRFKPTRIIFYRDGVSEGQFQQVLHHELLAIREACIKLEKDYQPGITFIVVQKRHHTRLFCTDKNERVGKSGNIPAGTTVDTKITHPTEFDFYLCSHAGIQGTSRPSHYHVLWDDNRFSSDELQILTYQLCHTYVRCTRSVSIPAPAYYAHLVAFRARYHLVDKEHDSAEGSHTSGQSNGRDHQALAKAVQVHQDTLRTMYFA

These are yes or no findings as the source states them, for the method shown. Binding seen in cells or lysates may run through a third protein. Some entries that bind do so weakly or less than the wild type.

The target of this assay is TNGW1, the longer isoform of GW182 (TNRC6A) (mouse (endogenous in OT-I CD8+ T cells)) (UniProt Q3UHK8). The assay is described as follows: co-IP; anti-GW182 antibody on Protein G Dynabeads; lysates of naive (d0) and d6 activated OT-I CD8+ T cells, 2 x 10^7 cells per IP; bound and unbound fractions blotted with Ago2 and GW182 antibodies.

On to “Argonaute 2 (Ago2) (from UniProt Q8CJG0 1-860)”, for which the binding result was “binds weakly”.
